Each structure is given as a SMILES string. Several values for one entry are separate records, joined by “and”; a condition that tells them apart may be missing. Equal entries are not always repeated. Some of the results follow. Shown are side measurements of this screen, not its main read-out; they come without a call. The list favours compounds with an active or inconclusive main result. Words in brackets tell the shape of the fitted curve; partial curves, single points and poor fits give uncertain potencies.

The assay is described as follows: qHTS Assay for Lipid Storage Modulators in Drosophila S3 Cells.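 As to cell number change: cells counted by Cell Tracker Red CMTPX staining in the red channel.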 As to conditions: BODIPY lipid droplet fluorescence, 18-24 h; for cell number change: measured here: cell count max response, cells fed with added oleic acid. A digest of the protocol: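 Laser-scanning cytometry quantifies lipid droplet accumulation (500–530 nm total intensity; droplet/cell object ratio) in oleic acid-fed (400 uM added) Drosophila S3 cells treated with a concentration series. 20 uM Triacsin C defined 100% inhibition.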
(In qHTS, concentration-response curves come from the screen itself.)

The mark [1] stands for this setting: measured here: lipid fluorescence (Fed channel) AC50, cells fed with added oleic acid.
Setting [2] is: measured here: cell number channel AC50, cells fed with added oleic acid.

For `Cc1ccccc1-n1cc(CNC(=O)C2CCC(=O)N(C3CC3)C2)cn1` (stereo not given), the cell number change is -10.4%. For the same compound, under setting [1], the AC50 (commonly the midpoint of the concentration-response curve, whichever way the signal moves) was 29.1 µM [rising, single point].
Regarding `COc1ccc(C(=O)Nn2cnnc2)cc1OC`, the cell number change was determined as 4.43%. The AC50 under setting [1] was 0.082 µM [falling, full curve, poor fit].
Take `O=C(Nc1cnn(Cc2c(Cl)cccc2Cl)c1)C(c1ccccc1)c1ccccc1`: the cell number change was determined as 0.233%. For the same compound, the AC50 under setting [1] is 1.3 µM [rising, full curve, poor fit].
Turning to `CCOc1ccc(N(CCCCO)C(=S)NC(=O)c2ccc(C)c(Br)c2)cc1`, the cell number change was -49.7%.
Regarding `Cc1ccc(C(=O)N/N=C/c2ccc3c(c2)OCO3)o1`, the cell number change is 13.7%. Besides, the AC50 under setting [1] is 29.1 µM [falling, single point].
As to `Cn1ccnc1C(=O)c1ccc(S(=O)(=O)N2CCCC2)cc1`, the concentration at half-maximal activity (AC50) was 0.058 µM [falling, full curve, poor fit] under setting [2] and 0.103 µM [falling, partial curve, poor fit] under setting [1].
On to `CCN(C(=O)COC(=O)/C=C/c1ccco1)c1c(N)n(Cc2ccccc2)c(=O)[nH]c1=O`, for which the cell number change amounted to 2.85%. Also, the AC50 under setting [2] was 0.259 µM [falling, single point]. The AC50 under setting [1] was 7.31 µM [falling, partial curve, poor fit].
Take `CC1CCc2sc(C(=O)OCC(=O)NC(C)C)cc2C1` (stereo not given): the cell number change is -59.7%. Besides, under setting [2], the AC50 is 29.1 µM [falling, single point]. Also, under setting [1], the AC50 is 29.1 µM [falling, single point].
Turning to `Cc1cc(C(=O)COC(=O)c2csc3c2CCCC3)c(C)n1C`, the cell number change was determined as 14.7%. Besides, the AC50 under setting [1] was 3.66 µM [rising, full curve, poor fit].
Regarding `CCC(=O)N1CN(S(=O)(=O)c2ccc(C)cc2)CC1C` (stereo not given), the cell number change was 0.123%. Under setting [1], the AC50 is 0.0058 µM [falling, full curve].
Turning to `O=C(CCNS(=O)(=O)c1cccc2nonc12)NCc1cccs1`, the cell number change was -0.676%. For the same compound, the AC50 under setting [1] was 2.91 µM [rising, full curve].
With `Cc1cc(=O)[nH]c(SCC(=O)/C=C2\N(C)c3ccccc3C2(C)C)n1`, the cell number change was -10.2%. In addition, the AC50 under setting [1] is 6.51 µM [falling, single point].
Take `Cn1c(CC(=O)Nc2ccccc2)c(Sc2ccccc2)c2ccccc21`: the AC50 under setting [1] was 29.1 µM [falling, single point].
As to `C/C(=C\c1ccco1)C1C(C#N)=C(N)Oc2n[nH]c(-c3ccccc3)c21` (stereo not given), the cell number change was -16.3%. Under setting [2], the AC50 was 2.91 µM [rising, partial curve]. Moreover, the AC50 under setting [1] is 3.66 µM [rising, partial curve].
As for `COc1ccc(/C(C)=N/NC(=O)c2ccc(CSc3cccc4cccnc34)cc2)cc1OC`, the cell number change is -39.1%. The AC50 under setting [2] is 20.6 µM [falling, single point]. Also, the AC50 under setting [1] was 10.3 µM [falling, partial curve].
In the case of `COc1ccccc1CO/N=C/c1cccn1-c1nccc(N(C)C)c1C#N`, under setting [2], the AC50 is 2.31 µM [rising, partial curve].
Turning to `Cc1cc2nc(C3CCCN(C(=S)Nc4ccccc4)C3)[nH]c2cc1C` (stereo not given), the cell number change is -30.9%. Moreover, the AC50 under setting [2] is 20.6 µM [falling, single point]. Also, under setting [1], the AC50 was 16.4 µM [falling, single point].
Regarding `O=C(CC1CCCC1)Nc1ccc(Br)cc1`, the cell number change came to 13.5%.
The same measure, in the same setting: as for `Cc1ccc2cc3cc(C(=O)N4CCN(Cc5ccccc5)CC4)sc3nc2c1`, the figure is -15.3%.
For `O=C(NC1CCCCCCC1)c1cnccn1`, the cell number change was 35%. For the same compound, the AC50 under setting [2] is 29.1 µM [rising, single point]. Under setting [1], the AC50 was 29.1 µM [rising, partial curve, poor fit].
`CCn1c(C)cc(O)cc1=O`: the cell number change is 7.37%. In addition, the AC50 under setting [1] is 29.1 µM [rising, single point].
Regarding `CCN(CC)S(=O)(=O)c1ccc(-c2nnc(SCC(=O)Nc3nc(C)cs3)o2)cc1`, the cell number change is -13.7%. Under setting [1], the AC50 was 2.31 µM [rising, full curve].
With `COc1ccc(NC2C=CS(=O)(=O)C2)c(OC)c1` (stereo not given), the cell number change worked out at 11.9%. Also, under setting [1], the concentration at half-maximal activity (AC50) was 0.146 µM [falling, full curve].
As to `CN(CC(=O)Nc1c(Cl)cccc1Cl)C(=O)c1sccc1-c1ccccc1`, the AC50 runs as follows: under setting [2], 3.66 µM [rising, partial curve]; under setting [1], 25.9 µM [falling, single point].
Take `Cc1ccc(C(=O)NCCc2ccc(S(N)(=O)=O)cc2)o1`: the AC50 under setting [1] was 2.06 µM [rising, single point].
For `CCOc1cc(C)nc(NCCc2ccc(OC)c(OC)c2)n1`, the cell number change is 7.87%.
Consider `COCCN1C(=S)N[C@@H](c2cccc(F)c2)C(C(=O)OC)=C1C`, for which the cell number change is -3.59% and 15.9%. Also, under setting [1], the AC50 was 130 nM [rising, full curve] and 3.26 µM [rising, full curve, poor fit].
Consider `CC(C)n1c(=O)[nH]c2ccccc21`, for which the cell number change is -50.3%. The concentration at half-maximal activity (AC50) under setting [2] is 5.8 µM [falling, full curve]. Under setting [1], the AC50 was 29.1 µM [falling, single point].
`O=c1[nH]c2ccccc2n2cnnc12`: the cell number change amounted to 51.4%.
`CCC/S(CC1CC1(Cl)Cl)=N\S(=O)(=O)c1ccc(C)cc1` (stereo not given): the cell number change is 44.1%. In addition, the AC50 under setting [2] was 4.61 µM [rising, partial curve].
For the compound `COc1cc(NC(=O)CCc2nnc3ccc(N4CCOCC4)nn23)cc(OC)c1OC`, the cell number change was 4.2%. Also, the AC50 under setting [1] was 29.1 µM [falling, single point].
As to `C=CCC(C(=O)NC(C)c1ccccc1)C(=O)NC(C)c1ccccc1` (stereo not given), the cell number change was -20.6%. Also, under setting [1], the AC50 was 5.8 µM [falling, partial curve].
Take `Cc1ccc(S(=O)(=O)NCC(=O)N2CCN(c3ccccn3)CC2)cc1`: the cell number change was 9.37%.
As for `CCCC1Cc2c(sc3nc(SC)nc(N)c23)CO1` (stereo not given), the cell number change is 1.93%. The AC50 under setting [1] is 0.146 µM [falling, full curve, poor fit].
For `Cc1ccc(-n2c(SCC(=O)NCC3CCCO3)nc3ccccc3c2=O)cc1C` (stereo not given), under setting [2], the AC50 was 6.51 µM [rising, single point].
Turning to `CCN(CC)CCCn1c2c(c(SCC(=O)N3CCCc4ccccc43)nc1=O)CCC2`, the cell number change was -40.1%. Moreover, the AC50 under setting [2] is 9.2 µM [falling, partial curve]. For the same compound, the AC50 under setting [1] was 0.517 µM [falling, partial curve, poor fit].
As to `O=C(Nc1ccc(-n2cnnn2)cc1)C1CCCN1C(=O)Nc1ccc(Br)cc1` (stereo not given), the cell number change is 21.9%. The AC50 under setting [1] is 6.51 µM [falling, single point].
`CN(C)/C=C(\c1cnc(Cl)s1)S(=O)(=O)c1ccccc1`: the cell number change is -36.6%. The AC50 under setting [2] is 29.1 µM [falling, single point]. In addition, the AC50 under setting [1] is 29.1 µM [falling, single point].

The values above are taken from PubChem BioAssay AID2685 (National Center for Advancing Translational Sciences (NCATS), 2010).
